Measurements reported in paper PMC4749301.

Molecular target: T1, Myc-Smo^WT (Myc-tagged wild-type Drosophila Smoothened) (Drosophila) (UniProt P91682)
T1 sequence: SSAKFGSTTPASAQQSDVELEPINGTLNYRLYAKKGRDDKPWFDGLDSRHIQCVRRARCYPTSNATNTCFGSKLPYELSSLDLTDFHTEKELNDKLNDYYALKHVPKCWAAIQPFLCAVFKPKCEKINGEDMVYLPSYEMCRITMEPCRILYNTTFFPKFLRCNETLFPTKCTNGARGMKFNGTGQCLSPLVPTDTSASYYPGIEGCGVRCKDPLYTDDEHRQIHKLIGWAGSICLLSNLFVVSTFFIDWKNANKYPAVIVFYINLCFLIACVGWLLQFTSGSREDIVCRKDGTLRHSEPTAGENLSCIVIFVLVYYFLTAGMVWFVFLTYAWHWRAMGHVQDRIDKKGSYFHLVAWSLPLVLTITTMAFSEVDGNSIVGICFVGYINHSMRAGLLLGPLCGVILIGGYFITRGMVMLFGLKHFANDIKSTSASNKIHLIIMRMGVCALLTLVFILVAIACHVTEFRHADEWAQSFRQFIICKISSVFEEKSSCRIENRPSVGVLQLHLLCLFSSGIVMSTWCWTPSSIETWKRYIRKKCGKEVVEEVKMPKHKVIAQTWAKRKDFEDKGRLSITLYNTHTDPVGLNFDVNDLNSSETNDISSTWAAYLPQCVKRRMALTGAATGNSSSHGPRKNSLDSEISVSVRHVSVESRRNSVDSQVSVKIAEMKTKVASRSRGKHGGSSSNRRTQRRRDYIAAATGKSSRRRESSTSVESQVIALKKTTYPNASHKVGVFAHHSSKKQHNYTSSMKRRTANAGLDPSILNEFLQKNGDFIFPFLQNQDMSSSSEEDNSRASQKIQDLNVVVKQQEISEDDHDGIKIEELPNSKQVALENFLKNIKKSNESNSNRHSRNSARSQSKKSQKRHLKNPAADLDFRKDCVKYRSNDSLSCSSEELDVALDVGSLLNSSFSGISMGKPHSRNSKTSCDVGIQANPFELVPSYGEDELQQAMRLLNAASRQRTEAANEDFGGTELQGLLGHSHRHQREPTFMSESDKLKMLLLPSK
Assay: co-IP; S2 cells transfected with Myc-Smo^WT and the HA-tagged PH domain, treated with PI(4)P (5 or 10 uM) or Hh-conditioned medium (30% or 60%); cell extracts immunoprecipitated with anti-Myc, western blot with anti-HA

binding: binds
Substance: HA-PH^OSBP (HA-tagged PH domain of the oxysterol binding protein) (domain or fragment)

No constants are given. Whether binding was seen depends on the method and setting. In cells and extracts the contact can be indirect. Binding calls can cover weak binding; strength is not graded here. Tags and fused reporters may be left off the sequences shown.
